{"source": "PubChem BioAssay AID504791 (Drosophila RNAi Screening Center, 2011)", "screen": "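Genes whose knock-down strengthens or weakens small-RNA reporter silencing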 (primary screen)", "cells": "Drosophila S2-derived reporter cells", "knock-down reagent": "long dsRNA against Drosophila genes, about 150-250 ng dsRNA per well (siRNA assay); about 80-120 ng (miRNA assay)", "duration": "about 5 days (siRNA assay); about 4 days (miRNA assay)", "challenge": "copper sulfate induction of reporters: 25 µM (siRNA assay); 200 mM stated (miRNA assay), 1-2 days before reading", "detection": "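Per-well ratio of Renilla over firefly light, expressed relative to that plate's average ratio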", "units": "stable assay Renilla, run 1 in luminescence; stable assay firefly, run 1 in luminescence", "hit rule": "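First-pass picks had plate-scaled ratios over 1.5 for the siRNA assay, over 1.6 for the miRNA assay, or under 0.6; two distinct dsRNAs had to score alike on retest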", "note": "The deposit covers about 23,000 reagents; this is an unselected part of those that have a named target and a result. Of all reagents, 199 (0.86%) are marked active. 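Plate-scaled ratios behind the calls are not deposited; printed light signals are raw; many rows marked increased or decreased are still called inactive.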 Unmarked entries are inactive. Not stated in the record: the direction of the score."}
{"gene": "CG2104", "amplicon": "DRSC12304", "stable assay Renilla, run 1": 6423, "stable assay firefly, run 1": 3.35e5}
{"gene": "CG33476", "amplicon": "DRSC22888", "stable assay Renilla, run 1": 4459, "stable assay firefly, run 1": 4.37e5}
{"gene": "CG4459", "amplicon": "DRSC15582", "stable assay Renilla, run 1": 7943, "stable assay firefly, run 1": 3.67e5}
{"gene": "rgr (regular)", "amplicon": "DRSC06487", "stable assay Renilla, run 1": 8489, "stable assay firefly, run 1": 4.08e5}
{"gene": "rgr (regular)", "amplicon": "DRSC07229", "stable assay Renilla, run 1": 8598, "stable assay firefly, run 1": 4.48e5}
{"gene": "CG10205", "amplicon": "DRSC05979", "stable assay Renilla, run 1": 5971, "stable assay firefly, run 1": 3.68e5}
{"gene": "gem (gemini)", "amplicon": "DRSC06093", "stable assay Renilla, run 1": 7395, "stable assay firefly, run 1": 3.44e5}
{"gene": "gem (gemini)", "amplicon": "DRSC06847", "stable assay Renilla, run 1": 6019, "stable assay firefly, run 1": 4.76e5}
{"gene": "CG2233", "amplicon": "DRSC18217", "stable siRNA reporter change": "reporter ratio raised past the hit cutoff", "stable assay Renilla, run 1": 38745, "stable assay firefly, run 1": 5.77e5}
{"gene": "Odc1 (Ornithine decarboxylase 1)", "amplicon": "DRSC07482", "stable assay Renilla, run 1": 7959, "stable assay firefly, run 1": 3.54e5}
{"gene": "CG15601", "amplicon": "DRSC19670", "stable assay Renilla, run 1": 5406, "stable assay firefly, run 1": 3.11e5}
{"gene": "CG3548", "amplicon": "DRSC04387", "stable assay Renilla, run 1": 33989, "stable assay firefly, run 1": 1.67e6}

Ordered by “stable assay firefly, run 1” (descending): 2 of the entries above
{"gene": "CG33476", "amplicon": "DRSC22888", "stable assay Renilla, run 1": 4459, "stable assay firefly, run 1": 4.37e5}
{"gene": "CG2104", "amplicon": "DRSC12304", "stable assay Renilla, run 1": 6423, "stable assay firefly, run 1": 3.35e5}
